These are yes or no findings as the source states them, for the method shown. Some results given as binding are weak or reduced against the parent protein; the word gives no strength.
T1: polypeptide corresponding to the CMV gp116 epitope AD2 site (CMV)
T1 sequence (peptide): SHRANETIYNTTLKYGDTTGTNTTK


Target: T1, polypeptide corresponding to the CMV gp116 epitope AD2 site (CMV)
Experiment: ELISA on UV-inactivated CMV virus with the AD2 peptide as soluble competitor

| Binder | binding |
| --- | --- |
| 2F10 human anti-CMV antibody (antibody, V domains shown) VH: QVHLVESGGGVVQPGRALRLSCAATGFTFSNHGIHWVRQAPGKGLEWLAVISSDGDDDRYADSVKGRFSVSRDNSKNTVHLQMNGLRPDDTAIYFCARDGRCGEPKCYSGLPDYWGRGTLVTVSS VL: EIVLTQSPATLSLSPGDRATLSCRASQSVGGYLAWYQQKPGQAPRLLLYDASNRATGIPARFSGSGSGTDFTLTISSLEPEDFALYYCLQRNTWPPLTFGGGTKVEIKR | binds |
| 2N9 human anti-CMV antibody (antibody, V domains shown) VH: QVQLVESGGGVVQPGRSLRLSCAASGFTFSSNGIHWVRQAPGKGLDWVAVISSDANDKQYADSVKGRFTISRDNSKNMVYLQMNSLRVEDTAVYFCARDGTCSGGNCYSGLIDYWGRGILVTVSS VL: EIVLTQSPATLSLSPGERATLSCRASQSVGGYLAWYQQKPGQAPRLLIYDASIRATGIPARFSGSGSGTDFTLTISSLEPEDFAVYYCHQRSNWPPLTFGGGTKVDIKR | binds |
| 4P12 human anti-CMV antibody (antibody, V domains shown) VH: QVQLVESGGGVIQPGRSLRLSCVASKFIFSNHGIHWVRQAPGKGLEWVAVISKDGTNAHYADSVRGRFSISRDNSKDTVFLEMRSLRPEDTAVYYCAREGRCIEENCYSGQIDYWGQGSLVTVSS VL: EILLTQSPATLSLSPGERATLSCRASQSVGRYMAWYQQRPGQAPRLLIYDASIRATGIPARFSGSGSGTDFTLTISSLQPEDFAIYYCQQRSSWPPLTFGGGTKVEIKR | binds |
